Here are results for one substance from article PMC6890249.

The target of this assay is T1, FLAG-tagged CLASP1 (H. sapiens CLASP1 isoform 2) (human) (UniProt Q7Z460).
T1 sequence: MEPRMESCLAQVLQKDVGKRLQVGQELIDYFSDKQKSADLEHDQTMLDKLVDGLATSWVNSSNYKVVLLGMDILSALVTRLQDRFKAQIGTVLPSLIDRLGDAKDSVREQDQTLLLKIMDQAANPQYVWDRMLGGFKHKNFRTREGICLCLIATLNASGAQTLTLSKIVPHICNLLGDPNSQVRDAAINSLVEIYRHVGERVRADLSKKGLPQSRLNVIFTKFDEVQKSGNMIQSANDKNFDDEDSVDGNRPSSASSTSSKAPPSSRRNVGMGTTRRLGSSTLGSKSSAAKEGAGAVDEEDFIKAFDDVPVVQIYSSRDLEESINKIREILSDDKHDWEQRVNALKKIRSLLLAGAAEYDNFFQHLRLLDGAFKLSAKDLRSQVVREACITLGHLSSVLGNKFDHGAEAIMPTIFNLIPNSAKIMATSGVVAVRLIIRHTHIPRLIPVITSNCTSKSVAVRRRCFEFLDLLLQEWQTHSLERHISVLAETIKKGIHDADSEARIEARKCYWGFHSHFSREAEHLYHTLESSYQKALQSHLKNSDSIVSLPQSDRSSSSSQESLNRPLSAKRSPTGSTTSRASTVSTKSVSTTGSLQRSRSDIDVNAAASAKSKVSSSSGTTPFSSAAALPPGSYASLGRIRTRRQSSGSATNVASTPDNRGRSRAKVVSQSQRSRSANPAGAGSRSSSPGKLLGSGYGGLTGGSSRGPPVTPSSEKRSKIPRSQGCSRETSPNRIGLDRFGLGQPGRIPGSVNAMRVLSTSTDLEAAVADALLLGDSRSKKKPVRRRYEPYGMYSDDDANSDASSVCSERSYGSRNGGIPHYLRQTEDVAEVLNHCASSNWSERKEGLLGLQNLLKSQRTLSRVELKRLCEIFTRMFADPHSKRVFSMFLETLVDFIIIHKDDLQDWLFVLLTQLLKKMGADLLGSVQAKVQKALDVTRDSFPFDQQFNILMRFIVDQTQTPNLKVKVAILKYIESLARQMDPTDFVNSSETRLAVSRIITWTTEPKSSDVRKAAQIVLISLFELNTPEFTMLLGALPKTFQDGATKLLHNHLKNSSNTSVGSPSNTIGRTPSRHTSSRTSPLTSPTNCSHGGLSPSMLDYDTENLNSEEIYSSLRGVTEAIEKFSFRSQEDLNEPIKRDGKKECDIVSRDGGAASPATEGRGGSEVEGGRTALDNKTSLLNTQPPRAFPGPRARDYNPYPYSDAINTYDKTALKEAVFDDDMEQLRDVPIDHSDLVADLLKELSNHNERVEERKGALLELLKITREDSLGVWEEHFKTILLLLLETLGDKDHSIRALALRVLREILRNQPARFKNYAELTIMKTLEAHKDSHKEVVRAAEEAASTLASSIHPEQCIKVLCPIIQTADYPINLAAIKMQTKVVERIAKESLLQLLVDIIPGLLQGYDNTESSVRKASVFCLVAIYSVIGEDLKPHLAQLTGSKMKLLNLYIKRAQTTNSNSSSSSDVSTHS
The assay is described as follows: co-IP; FLAG-tagged CLASP1 coexpressed with HA-tagged kinases in HEK293T; anti-FLAG M2 magnetic beads, 3xFLAG peptide elution; Western blot. In general terms: In western blotting, separated proteins are transferred to a membrane and probed.

No constants are given. Whether binding was seen depends on the method and setting. Binding seen in cells or lysates may run through a third protein. Binding calls can cover weak binding; strength is not graded here. Tags and fused reporters may be left off the sequences shown.

As to “HA-tagged MARK2 (transcript variant 3, MARK2 1–724) (from UniProt Q7KZI7-16) (enzyme)”, the binding entry is reported as “binds”.
